# Results reported in the supplement of paper PMC7666118.
# By UniProt entry, the sequences of proteins in these tests, tags left out. Where a name states a change or a piece, a line headed by the entry shows the natural chain unless it says otherwise.
# UniProt Q9NVV0: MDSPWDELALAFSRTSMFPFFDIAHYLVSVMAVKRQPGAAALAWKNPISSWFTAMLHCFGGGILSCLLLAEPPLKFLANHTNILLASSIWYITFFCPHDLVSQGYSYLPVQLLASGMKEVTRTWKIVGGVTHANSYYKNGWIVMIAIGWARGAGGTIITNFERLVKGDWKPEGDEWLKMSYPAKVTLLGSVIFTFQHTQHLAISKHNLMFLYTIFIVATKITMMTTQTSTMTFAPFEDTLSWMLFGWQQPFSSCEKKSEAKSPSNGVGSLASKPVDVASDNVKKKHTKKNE
# UniProt P60174, whole entry: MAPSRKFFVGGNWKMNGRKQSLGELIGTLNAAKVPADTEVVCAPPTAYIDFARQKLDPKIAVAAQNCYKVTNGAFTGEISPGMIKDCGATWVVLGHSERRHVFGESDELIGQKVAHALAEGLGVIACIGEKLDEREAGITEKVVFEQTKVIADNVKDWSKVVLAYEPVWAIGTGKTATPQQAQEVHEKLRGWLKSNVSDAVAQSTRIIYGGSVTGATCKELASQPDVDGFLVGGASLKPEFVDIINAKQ
# UniProt P62072: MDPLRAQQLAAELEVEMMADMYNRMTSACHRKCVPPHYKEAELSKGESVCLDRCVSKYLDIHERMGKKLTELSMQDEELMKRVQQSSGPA
# UniProt P67936, whole entry: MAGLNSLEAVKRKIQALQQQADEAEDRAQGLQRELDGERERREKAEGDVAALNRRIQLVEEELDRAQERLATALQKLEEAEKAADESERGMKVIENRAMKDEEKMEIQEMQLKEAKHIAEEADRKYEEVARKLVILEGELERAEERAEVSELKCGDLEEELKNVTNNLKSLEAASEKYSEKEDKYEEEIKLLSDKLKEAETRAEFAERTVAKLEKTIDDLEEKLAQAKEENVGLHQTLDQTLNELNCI
# UniProt Q8NG11: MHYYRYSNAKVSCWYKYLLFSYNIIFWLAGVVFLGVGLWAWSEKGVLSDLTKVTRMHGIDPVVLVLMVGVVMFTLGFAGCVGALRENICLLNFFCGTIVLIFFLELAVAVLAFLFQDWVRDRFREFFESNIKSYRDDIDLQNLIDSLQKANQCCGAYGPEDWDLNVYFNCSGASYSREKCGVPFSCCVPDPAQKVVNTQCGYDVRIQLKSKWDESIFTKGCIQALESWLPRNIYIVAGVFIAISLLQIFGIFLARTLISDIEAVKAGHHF
# UniProt Q9BQ50: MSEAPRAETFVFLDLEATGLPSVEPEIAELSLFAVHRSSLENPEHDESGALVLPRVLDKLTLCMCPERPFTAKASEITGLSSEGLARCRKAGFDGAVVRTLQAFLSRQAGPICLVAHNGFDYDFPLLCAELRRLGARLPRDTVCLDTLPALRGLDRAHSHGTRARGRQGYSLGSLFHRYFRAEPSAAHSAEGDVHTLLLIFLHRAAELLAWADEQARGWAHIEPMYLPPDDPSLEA
# UniProt Q8NE00: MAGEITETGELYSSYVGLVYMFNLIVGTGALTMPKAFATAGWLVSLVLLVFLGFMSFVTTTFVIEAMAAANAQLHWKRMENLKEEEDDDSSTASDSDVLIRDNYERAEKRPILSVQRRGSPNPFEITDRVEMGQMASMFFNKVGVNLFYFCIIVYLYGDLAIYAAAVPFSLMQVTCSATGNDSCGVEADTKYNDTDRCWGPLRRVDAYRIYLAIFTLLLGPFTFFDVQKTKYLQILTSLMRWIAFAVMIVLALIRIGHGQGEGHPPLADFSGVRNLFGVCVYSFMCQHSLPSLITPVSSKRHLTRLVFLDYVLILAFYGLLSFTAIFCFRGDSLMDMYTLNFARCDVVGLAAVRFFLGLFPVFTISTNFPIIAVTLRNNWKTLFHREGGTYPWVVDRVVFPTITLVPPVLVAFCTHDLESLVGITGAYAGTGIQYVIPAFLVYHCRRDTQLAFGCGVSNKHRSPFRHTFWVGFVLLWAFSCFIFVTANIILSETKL
# UniProt Q8NCE0: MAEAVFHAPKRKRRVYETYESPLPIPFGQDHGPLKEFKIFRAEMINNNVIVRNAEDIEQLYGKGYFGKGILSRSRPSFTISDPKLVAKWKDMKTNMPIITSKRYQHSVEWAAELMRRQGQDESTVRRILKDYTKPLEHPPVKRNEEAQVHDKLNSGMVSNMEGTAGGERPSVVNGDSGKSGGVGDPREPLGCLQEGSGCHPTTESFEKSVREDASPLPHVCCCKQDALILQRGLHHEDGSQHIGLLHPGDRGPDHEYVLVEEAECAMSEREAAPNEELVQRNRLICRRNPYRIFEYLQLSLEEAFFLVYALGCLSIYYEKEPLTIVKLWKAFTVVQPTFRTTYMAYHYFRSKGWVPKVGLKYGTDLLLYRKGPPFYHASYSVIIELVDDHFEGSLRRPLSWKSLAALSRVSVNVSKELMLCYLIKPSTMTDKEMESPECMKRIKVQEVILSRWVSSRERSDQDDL
# UniProt O94876, whole entry: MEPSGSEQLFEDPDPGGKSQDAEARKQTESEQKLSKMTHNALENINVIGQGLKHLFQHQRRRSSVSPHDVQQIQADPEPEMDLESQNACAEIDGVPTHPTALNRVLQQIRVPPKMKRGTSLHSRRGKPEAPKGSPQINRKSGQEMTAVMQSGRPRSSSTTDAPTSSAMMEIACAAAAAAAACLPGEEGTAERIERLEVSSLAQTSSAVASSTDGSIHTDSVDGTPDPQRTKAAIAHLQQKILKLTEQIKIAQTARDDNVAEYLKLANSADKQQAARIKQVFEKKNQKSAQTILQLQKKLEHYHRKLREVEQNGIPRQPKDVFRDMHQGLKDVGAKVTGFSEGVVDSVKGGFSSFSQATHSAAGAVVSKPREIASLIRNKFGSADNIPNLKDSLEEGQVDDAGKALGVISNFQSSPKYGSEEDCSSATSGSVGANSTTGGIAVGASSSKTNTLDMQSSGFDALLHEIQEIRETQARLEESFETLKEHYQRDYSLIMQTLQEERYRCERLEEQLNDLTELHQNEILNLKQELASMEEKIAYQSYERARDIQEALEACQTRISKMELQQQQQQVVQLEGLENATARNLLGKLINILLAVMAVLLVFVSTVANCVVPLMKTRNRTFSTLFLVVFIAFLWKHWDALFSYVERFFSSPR
# UniProt Q9Y2W1: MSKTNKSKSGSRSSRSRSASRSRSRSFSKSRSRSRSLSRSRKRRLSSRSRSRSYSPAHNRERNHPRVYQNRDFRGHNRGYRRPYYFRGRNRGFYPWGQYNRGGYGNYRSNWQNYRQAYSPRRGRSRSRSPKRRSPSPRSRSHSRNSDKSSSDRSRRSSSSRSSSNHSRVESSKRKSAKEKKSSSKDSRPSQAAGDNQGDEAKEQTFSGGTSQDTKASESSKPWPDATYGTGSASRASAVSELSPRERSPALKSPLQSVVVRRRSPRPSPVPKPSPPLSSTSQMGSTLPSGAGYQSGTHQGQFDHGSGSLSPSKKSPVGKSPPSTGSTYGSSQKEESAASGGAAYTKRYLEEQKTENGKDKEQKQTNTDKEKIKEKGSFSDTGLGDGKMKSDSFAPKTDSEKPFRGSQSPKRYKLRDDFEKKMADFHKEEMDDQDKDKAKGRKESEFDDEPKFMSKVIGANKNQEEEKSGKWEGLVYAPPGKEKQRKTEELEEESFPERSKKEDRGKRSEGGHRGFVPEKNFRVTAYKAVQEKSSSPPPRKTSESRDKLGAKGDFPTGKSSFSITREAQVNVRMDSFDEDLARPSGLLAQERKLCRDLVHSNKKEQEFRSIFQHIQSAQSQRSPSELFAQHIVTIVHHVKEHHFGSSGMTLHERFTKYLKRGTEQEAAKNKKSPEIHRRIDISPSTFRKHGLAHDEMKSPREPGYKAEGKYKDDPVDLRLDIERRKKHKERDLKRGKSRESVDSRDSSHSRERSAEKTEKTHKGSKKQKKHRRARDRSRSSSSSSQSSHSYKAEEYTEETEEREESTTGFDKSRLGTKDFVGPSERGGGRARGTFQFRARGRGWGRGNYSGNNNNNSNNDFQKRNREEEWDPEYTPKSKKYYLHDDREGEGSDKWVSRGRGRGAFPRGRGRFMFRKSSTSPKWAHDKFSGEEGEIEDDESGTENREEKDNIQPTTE
# UniProt Q15714: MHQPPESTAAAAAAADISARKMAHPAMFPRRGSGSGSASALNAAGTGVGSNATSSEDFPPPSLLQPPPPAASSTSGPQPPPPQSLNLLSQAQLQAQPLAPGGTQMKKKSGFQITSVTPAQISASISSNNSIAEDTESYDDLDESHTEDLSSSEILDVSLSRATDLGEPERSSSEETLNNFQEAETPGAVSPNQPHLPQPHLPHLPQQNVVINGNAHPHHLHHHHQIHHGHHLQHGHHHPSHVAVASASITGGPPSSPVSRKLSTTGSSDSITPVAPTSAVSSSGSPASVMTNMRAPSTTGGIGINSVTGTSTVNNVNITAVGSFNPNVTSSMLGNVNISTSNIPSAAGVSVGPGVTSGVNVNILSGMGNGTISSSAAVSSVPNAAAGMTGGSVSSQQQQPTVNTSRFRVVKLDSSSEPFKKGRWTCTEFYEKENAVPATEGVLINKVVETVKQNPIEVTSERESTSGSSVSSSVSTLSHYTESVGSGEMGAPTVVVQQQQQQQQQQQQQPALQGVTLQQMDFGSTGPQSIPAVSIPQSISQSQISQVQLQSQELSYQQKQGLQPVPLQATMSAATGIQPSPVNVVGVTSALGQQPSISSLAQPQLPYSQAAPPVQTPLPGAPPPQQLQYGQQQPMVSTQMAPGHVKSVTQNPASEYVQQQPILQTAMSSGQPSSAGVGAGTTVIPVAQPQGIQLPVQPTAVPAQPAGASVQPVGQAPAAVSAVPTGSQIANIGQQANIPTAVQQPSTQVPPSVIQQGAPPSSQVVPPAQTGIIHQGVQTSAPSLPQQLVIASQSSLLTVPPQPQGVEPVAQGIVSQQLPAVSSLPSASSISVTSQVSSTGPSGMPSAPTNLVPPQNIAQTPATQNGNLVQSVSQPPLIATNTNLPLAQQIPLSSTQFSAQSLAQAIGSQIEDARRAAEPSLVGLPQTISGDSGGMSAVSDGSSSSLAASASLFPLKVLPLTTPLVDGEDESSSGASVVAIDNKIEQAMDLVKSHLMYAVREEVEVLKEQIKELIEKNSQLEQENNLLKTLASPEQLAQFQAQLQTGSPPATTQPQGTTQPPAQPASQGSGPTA
# UniProt Q9BV44: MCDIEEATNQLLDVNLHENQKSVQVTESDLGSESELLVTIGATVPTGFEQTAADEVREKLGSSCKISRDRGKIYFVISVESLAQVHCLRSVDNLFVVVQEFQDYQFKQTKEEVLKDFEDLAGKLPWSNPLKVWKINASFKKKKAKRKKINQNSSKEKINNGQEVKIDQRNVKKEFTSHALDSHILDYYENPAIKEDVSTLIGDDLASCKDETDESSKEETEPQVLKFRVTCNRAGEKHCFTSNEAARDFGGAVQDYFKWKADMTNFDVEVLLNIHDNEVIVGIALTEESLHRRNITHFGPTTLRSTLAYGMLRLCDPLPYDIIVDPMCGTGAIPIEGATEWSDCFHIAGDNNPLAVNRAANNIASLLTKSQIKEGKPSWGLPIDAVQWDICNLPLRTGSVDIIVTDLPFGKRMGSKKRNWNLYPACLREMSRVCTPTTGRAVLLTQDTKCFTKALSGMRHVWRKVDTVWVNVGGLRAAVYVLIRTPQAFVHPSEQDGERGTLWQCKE
# UniProt O94886: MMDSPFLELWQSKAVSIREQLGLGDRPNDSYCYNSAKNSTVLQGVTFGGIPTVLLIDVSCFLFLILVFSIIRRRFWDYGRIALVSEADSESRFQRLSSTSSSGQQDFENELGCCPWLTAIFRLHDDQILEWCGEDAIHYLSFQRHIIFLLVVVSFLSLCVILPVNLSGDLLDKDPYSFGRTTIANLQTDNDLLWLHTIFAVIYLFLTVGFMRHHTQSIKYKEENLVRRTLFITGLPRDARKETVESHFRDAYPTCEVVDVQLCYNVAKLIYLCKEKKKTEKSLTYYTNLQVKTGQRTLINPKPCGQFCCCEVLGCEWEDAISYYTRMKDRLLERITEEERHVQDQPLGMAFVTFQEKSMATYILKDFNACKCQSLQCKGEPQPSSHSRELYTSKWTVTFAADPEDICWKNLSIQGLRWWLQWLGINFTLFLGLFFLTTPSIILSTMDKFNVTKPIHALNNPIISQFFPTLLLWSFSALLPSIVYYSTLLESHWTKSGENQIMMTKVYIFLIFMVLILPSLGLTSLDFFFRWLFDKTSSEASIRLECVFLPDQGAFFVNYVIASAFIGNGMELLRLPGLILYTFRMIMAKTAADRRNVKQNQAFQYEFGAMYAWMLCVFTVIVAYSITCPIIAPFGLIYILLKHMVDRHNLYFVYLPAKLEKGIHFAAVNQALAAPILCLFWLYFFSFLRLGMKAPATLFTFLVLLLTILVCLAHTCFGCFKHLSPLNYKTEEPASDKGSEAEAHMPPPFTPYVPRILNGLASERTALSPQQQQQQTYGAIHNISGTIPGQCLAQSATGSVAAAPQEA
# UniProt P51580: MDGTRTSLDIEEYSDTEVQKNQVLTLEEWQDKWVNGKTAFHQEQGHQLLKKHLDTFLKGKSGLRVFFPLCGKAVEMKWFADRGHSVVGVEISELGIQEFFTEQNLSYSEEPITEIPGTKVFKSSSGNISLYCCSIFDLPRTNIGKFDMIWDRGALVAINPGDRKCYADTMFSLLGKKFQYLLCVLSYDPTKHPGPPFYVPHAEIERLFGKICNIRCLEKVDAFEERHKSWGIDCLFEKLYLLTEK
# The list shows a part of the results.
# Compound: COc1ccc(Cn2ccc3cc(C)c(C(=O)NO)cc32)cc1
# Experiment: dose-dependent thermal stabilisation call (2D-TPP, DLPTP, 10% FDR) (binary (1 = stabilised)); higher = stabilised by the compound
# Settings: system: HL-60 intact cells; concentration range 0.04-10 µM
# Experimental: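 2D thermal proteome profiling in intact HL-60 cells treated with BRD-3811 (0, 0.04, 0.29, 2, 10 uM) for 90 min at 37 C, then heated 3 min at one of 12 temperatures (42-63.9 C). Soluble protein was quantified by TMT10 MS. The value is the DLPTP call of the paper: dose-dependent thermal stabilisation over all temperatures at 10% FDR (F-test of a dose-response against a flat model); one experiment, one call per tested protein.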
row,Target,dose-dependent thermal stabilisation call
1,TMEM38B (UniProt Q9NVV0),inactive: 0
2,TNFAIP3 (UniProt P21580),inactive: 0
3,TRIAP1 (UniProt O43715),inactive: 0
4,TMEM87A (UniProt Q8NBN3),inactive: 0
5,TMEM49 (UniProt Q96GC9),inactive: 0
6,TPI1 (UniProt P60174),inactive: 0
7,TIMM10 (UniProt P62072),inactive: 0
8,TMEM115 (UniProt Q12893),inactive: 0
9,TMEM55B (UniProt Q86T03),inactive: 0
10,TOP3B (UniProt O95985),inactive: 0
11,TPM4 (UniProt P67936),inactive: 0
12,TSPAN14 (UniProt Q8NG11),inactive: 0
13,TRMT11 (UniProt Q7Z4G4),inactive: 0
14,TMED3 (UniProt Q9Y3Q3),inactive: 0
15,TREX2 (UniProt Q9BQ50),inactive: 0
16,TMEM104 (UniProt Q8NE00),inactive: 0
17,TSEN2 (UniProt Q8NCE0),inactive: 0
18,TMEM126B (UniProt Q8IUX1),inactive: 0

# Exported with tabs: entries from further up
row	Target	dose-dependent thermal stabilisation call
3	TRIAP1 (UniProt O43715)	inactive: 0
13	TRMT11 (UniProt Q7Z4G4)	inactive: 0

# More records.

row,Target,dose-dependent thermal stabilisation call
1,TOP2A (UniProt P11388),inactive: 0
2,TMCC1 (UniProt O94876),inactive: 0
3,THRAP3 (UniProt Q9Y2W1),inactive: 0
4,TMEM70 (UniProt Q9BUB7),inactive: 0
5,TMEM102 (UniProt Q8N9M5),inactive: 0
6,TRIM22 (UniProt Q8IYM9),inactive: 0
7,TRIP12 (UniProt Q14669),inactive: 0
8,TNFRSF8 (UniProt P28908),inactive: 0
9,TPM3 (UniProt P06753),inactive: 0
10,TRIM5 (UniProt Q9C035),inactive: 0
11,TSC22D1 (UniProt Q15714),inactive: 0
12,TNFRSF1A (UniProt P19438),inactive: 0
13,TRRAP (UniProt Q9Y4A5),inactive: 0
14,TNFAIP8 (UniProt O95379),inactive: 0
15,THUMPD3 (UniProt Q9BV44),inactive: 0
16,TMEM63A (UniProt O94886),inactive: 0
17,TPMT (UniProt P51580),inactive: 0
18,TSGA14 (UniProt Q9BYV8),inactive: 0
